No constants are given. Whether binding was seen depends on the method and setting. For some assays here: A result given as binding can be weak or reduced; the word gives no strength. For some assays here: Where a sequence is shown, tags or fusion partners need not be part of it. For some assays here: Binding seen in cells or lysates may run through a third protein.

By UniProt entry, the sequences of proteins in these tests, tags left out. Where a name states a change or a piece, a line headed by the entry shows the natural chain unless it says otherwise.
UniProt O14744: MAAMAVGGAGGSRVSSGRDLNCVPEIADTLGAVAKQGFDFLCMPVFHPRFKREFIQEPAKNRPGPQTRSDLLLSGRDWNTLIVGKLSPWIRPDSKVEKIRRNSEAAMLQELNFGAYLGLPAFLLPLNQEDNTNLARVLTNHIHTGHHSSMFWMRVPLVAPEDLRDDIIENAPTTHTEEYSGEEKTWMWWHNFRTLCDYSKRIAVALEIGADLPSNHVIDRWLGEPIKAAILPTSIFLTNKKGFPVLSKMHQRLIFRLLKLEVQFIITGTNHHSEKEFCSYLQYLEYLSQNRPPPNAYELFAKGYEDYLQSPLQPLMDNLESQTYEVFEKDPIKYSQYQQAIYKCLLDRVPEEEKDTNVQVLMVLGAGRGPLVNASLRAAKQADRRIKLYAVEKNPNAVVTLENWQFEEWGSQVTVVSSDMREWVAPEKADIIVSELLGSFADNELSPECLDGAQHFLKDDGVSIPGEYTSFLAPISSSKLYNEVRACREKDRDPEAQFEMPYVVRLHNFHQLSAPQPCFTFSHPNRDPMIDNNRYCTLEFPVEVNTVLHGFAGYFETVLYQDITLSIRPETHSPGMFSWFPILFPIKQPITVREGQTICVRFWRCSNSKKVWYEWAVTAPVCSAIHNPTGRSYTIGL
UniProt Q15672: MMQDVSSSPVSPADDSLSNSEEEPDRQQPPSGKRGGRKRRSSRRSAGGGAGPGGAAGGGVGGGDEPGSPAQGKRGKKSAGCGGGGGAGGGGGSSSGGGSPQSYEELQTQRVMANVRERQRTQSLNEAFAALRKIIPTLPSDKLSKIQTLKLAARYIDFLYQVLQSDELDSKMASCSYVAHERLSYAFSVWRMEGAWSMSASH
UniProt Q92769: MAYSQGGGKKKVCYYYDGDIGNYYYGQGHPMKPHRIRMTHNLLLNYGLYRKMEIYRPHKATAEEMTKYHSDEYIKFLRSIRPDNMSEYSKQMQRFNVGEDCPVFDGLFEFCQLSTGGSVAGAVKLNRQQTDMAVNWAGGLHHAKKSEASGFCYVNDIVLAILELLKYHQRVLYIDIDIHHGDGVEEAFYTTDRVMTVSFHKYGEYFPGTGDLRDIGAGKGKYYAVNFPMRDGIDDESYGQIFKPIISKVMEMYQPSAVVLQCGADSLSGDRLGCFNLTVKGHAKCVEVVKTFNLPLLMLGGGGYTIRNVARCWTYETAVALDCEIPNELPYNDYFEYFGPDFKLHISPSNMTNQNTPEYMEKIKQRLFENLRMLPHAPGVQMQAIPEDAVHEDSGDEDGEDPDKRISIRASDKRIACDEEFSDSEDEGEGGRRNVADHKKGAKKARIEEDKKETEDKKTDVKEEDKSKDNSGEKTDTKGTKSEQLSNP

Assay [1] has as its target GST/His-fused PRMT5 purified from E. coli (UniProt O14744). Description: pull-down; GST pull-down: GST-fused proteins mixed with 6*His-fused proteins, all purified from E. coli; glutathione beads 4 h, five washes, Western blot; both purified. Background: A western blot detects proteins with antibodies after separation by electrophoresis.
For assay [2], the target named is T1, GST/His-fused ZEB2 purified from E. coli (UniProt A0JP08).
T1 sequence: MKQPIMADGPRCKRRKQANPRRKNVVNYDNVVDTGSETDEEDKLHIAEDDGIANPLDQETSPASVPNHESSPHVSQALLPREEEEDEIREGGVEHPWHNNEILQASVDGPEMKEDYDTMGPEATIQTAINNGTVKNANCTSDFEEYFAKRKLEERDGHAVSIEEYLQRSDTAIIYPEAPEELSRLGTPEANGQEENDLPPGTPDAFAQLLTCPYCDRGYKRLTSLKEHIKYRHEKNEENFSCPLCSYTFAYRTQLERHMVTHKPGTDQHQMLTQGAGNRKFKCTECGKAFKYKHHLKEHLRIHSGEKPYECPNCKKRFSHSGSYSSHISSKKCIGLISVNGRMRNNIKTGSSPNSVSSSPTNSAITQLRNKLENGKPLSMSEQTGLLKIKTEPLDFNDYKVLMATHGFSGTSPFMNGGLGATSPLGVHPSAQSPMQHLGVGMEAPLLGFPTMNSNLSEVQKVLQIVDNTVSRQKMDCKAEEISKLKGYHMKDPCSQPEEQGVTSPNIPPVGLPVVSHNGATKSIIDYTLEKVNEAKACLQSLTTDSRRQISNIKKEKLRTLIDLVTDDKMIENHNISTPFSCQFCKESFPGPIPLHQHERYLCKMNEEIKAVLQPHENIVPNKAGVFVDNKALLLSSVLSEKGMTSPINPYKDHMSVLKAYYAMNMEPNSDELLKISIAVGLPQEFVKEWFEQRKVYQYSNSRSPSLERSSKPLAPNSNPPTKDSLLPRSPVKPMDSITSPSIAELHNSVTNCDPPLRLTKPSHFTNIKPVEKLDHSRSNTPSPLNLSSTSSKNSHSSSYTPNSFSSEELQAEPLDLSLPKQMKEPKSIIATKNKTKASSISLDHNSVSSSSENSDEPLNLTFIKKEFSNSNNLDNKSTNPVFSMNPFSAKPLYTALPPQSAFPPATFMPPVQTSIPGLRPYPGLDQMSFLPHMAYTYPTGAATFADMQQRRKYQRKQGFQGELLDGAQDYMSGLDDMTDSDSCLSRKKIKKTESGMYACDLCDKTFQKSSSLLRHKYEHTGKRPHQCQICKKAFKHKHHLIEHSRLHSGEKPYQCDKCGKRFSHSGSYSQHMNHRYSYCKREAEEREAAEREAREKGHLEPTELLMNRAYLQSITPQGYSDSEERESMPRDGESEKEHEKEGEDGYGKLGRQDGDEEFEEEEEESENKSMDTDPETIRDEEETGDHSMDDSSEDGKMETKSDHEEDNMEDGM
The assay is described as above.

Assay [3] addresses GST/His-fused TWIST1 purified from E. coli (UniProt Q15672). The assay is described as above.
Assay [4] has as its target T2, HA-tagged ZEB2 (Zinc finger E-box-binding homeobox 2) (UniProt A0JP08).
T2 sequence: T1 sequence
Description: co-IP; whole-cell lysates of SW480 cells overexpressing ZEB2 (without or with overexpressed TWIST1) immunoprecipitated for ZEB2, Western blot of the precipitates; IgG as negative control.

In assay [5] the target is T3, ZEB2 immunoprecipitated from HT29, HCT116 and SW620 cells (UniProt A0JP08).
T3 sequence: T1 sequence
Kind of assay: co-IP; immunoprecipitation of ZEB2 from HT29, HCT116 and SW620 cells, Western blot (Supplementary Figure S7).

Take “GST/His-fused HDAC2 purified from E. coli (from UniProt Q92769 1-488) (enzyme)”: the binding entry in assay [1] is “no binding”.
As to “GST/His-fused PRMT5 purified from E. coli (from UniProt O14744) (enzyme)”, the values for the binding entry in assay [2] and in assay [3] were “binds” and “no binding”, respectively.
For “Protein arginine N-methyltransferase 5 (PRMT5), endogenous (from UniProt O14744) (enzyme)”, the binding entry in assay [4] and in assay [5] was “binds” in each case.

These data come from PMC9324012.
